Results are given in words; binding and its absence hold for the method and conditions named. Some entries that bind do so weakly or less than the wild type.

Amino acid sequences for entries named in this document (tags omitted). A change or cut given only in a name is not applied to a line headed by its entry. Chains listed by the source or under a name are the forms on record and can include a tag or linker.
oligomeric variants of tau in human FTD sera (P10636, form named): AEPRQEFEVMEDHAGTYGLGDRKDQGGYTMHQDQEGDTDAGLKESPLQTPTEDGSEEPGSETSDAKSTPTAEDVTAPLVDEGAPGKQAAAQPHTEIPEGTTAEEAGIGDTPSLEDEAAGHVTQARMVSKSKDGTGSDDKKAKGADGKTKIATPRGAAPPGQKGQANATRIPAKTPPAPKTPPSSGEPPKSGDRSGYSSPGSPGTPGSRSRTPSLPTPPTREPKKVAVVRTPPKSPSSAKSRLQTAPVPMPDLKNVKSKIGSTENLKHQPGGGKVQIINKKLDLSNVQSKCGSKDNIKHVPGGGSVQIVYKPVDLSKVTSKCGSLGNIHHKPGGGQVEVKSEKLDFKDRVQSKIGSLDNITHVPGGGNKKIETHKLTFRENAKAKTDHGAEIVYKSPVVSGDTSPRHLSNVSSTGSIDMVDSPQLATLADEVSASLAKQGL

The target in experiment [1] is oligomeric variants of tau in human FTD sera (human) (UniProt P10636). The experiment in a line: phage capture ELISA on FTD sera; scFv as capture, tau detection phage.
Experiment [2] has as its target oligomeric variants of beta-amyloid in human FTD sera (human) (UniProt P05067). The experiment in a line: phage capture ELISA on FTD sera; scFv as capture, beta-amyloid detection phage.

B1: F9T scFv (scFv)
scFv: MAQVQLQESGGGVVQPGRSLRLSCAASGFTFSTSGMHWVRQAPGKGLEWVAFILHDGSDKYYADSVKGRFTISRDNSKNTLYLQMNSLRAEDTAIYYCAKSQRELLGAEYLQNWGQGTLVTVSSGGGGSGGGGSGGGGSQSALTQPASVSGSPGQSITISCTGTSSDVGGYKYVSWYQQHPGKAPKVMIYDVSNRPSGVSNRFSGSKSGNTASLTISGLQAEDEADYYCSSYTSSSTLVFGGGTKVTVLGAAAHHHHHHGAAEQKLISEEDLNGAA
B1: in experiment [1], the binding entry is “binds”.

B2: A4 scFv (scFv)
scFv: MAEVQLLESGGGLVQPGGSLRLSCAASGFTFSSYPMSWVRQAPGKGLEWVSAIQHTGAPTTYADSVKGRFTISRDNSKNTLYLQMNSLRAEDTAVYYCAKAFPPFDYWGQGTLVTVSSGGGGSGGGGSGGGGSTDIQMTQSPSSLSASVGDRVTITCRASQSISSYLNWYQQKPGKAPKLLIYSASSLQSGVPSRFSGSGSGTDFTLTISSLQPEDFATYYCQQRETGPKAFGQGTKVEIKRAAAHHHHHHGAAEQKLISEEDLNGAA
Consider B2, for which, in experiment [2], the binding entry is listed as “binds”.

The record behind these values is US20260276657A1.
